Test results from patent US11667697.
No constants are given. Whether binding was seen depends on the method and setting. A result given as binding can be weak or reduced; the word gives no strength.

B1: VACV-308 (antibody, V domains shown)
VH: QVQLVQSGAEVKKPGSSVKVSCKGSGDSFRSYAISWVRQAPGQGLEWMGGIIPRFGTTNYAQKFQDRVTITADKSTTTAYMELRSLKCEDTGVYYCARPQSAYDFGPFDHWGQGTLVTVSS
VL: SYELTQPPSLSVAPGKTARITCGGDNIGSKGVHWYQQKPGQAPVVVISYDSDRPSGIPERFSGSNSGDTATLTISRVEAGDEADYYCHVWHTTTDHYVFGTGTKVTVL
B2: VACV-309 (antibody, V domains shown)
VH: EVQLLESGGGLVQPGESLKLSCAASGFTFSSYAMNWVRQAPGKGLEWVSGISGSGGSTYYADSVKGRFTVSRDNSKNTLYLQMNSLRAEDTAVYYCAKDNNYYYYGMDVWGQGTTVTVSS
VL: AIQMTQSPSSLSASVGDRVTITCRASQGIRNDLGWYQQKPGKAPKLLIYAASSLQSGVPSRFSGSGSGTDFTLTISSLQPEDFATYYCLQDYNYPRMFGQGTKVDIK

Columns and labels:
[1] = molecular target: VACV H5 protein (vaccinia virus); experiment: antigen ELISA/array/BLI
[2] = molecular target: VACV H5 protein (vaccinia virus); experiment: lysate ELISA
[3] = molecular target: VACV A25 protein (vaccinia virus); experiment: antigen ELISA/array/BLI
[4] = molecular target: VACV A25 protein (vaccinia virus); experiment: lysate ELISA

Binder	binding [1]	binding [2]	binding [3]	binding [4]
B1	binds	binds	–	–
B2	–	–	binds	binds
